The supplement of paper PMC10849652
The list shows a part of the results.

Amino acid sequences for entries named in this document (tags omitted). A change or cut given only in a name is not applied to a line headed by its entry.
UniProt Q15286: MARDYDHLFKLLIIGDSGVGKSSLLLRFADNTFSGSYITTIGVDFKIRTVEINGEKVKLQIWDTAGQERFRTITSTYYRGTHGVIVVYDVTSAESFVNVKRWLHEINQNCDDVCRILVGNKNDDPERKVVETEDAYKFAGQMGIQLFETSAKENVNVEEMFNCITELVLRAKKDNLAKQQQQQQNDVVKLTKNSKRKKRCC
UniProt P53611: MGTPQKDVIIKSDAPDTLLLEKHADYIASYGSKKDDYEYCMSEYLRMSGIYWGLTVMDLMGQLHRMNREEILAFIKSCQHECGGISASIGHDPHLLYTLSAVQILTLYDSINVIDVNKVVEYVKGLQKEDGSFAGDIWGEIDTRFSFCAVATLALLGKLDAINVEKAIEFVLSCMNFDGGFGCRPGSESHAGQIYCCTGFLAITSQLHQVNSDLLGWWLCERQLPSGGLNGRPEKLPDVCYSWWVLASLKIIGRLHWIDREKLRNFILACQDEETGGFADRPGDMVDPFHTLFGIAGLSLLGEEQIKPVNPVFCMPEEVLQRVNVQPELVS
UniProt Q6IQ22: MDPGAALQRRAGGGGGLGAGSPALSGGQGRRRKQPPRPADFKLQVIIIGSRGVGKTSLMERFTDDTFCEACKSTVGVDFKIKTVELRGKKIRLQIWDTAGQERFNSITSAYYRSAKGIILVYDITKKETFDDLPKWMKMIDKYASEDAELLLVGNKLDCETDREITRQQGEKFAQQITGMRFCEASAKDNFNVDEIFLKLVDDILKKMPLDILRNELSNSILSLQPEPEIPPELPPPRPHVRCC
UniProt Q92878: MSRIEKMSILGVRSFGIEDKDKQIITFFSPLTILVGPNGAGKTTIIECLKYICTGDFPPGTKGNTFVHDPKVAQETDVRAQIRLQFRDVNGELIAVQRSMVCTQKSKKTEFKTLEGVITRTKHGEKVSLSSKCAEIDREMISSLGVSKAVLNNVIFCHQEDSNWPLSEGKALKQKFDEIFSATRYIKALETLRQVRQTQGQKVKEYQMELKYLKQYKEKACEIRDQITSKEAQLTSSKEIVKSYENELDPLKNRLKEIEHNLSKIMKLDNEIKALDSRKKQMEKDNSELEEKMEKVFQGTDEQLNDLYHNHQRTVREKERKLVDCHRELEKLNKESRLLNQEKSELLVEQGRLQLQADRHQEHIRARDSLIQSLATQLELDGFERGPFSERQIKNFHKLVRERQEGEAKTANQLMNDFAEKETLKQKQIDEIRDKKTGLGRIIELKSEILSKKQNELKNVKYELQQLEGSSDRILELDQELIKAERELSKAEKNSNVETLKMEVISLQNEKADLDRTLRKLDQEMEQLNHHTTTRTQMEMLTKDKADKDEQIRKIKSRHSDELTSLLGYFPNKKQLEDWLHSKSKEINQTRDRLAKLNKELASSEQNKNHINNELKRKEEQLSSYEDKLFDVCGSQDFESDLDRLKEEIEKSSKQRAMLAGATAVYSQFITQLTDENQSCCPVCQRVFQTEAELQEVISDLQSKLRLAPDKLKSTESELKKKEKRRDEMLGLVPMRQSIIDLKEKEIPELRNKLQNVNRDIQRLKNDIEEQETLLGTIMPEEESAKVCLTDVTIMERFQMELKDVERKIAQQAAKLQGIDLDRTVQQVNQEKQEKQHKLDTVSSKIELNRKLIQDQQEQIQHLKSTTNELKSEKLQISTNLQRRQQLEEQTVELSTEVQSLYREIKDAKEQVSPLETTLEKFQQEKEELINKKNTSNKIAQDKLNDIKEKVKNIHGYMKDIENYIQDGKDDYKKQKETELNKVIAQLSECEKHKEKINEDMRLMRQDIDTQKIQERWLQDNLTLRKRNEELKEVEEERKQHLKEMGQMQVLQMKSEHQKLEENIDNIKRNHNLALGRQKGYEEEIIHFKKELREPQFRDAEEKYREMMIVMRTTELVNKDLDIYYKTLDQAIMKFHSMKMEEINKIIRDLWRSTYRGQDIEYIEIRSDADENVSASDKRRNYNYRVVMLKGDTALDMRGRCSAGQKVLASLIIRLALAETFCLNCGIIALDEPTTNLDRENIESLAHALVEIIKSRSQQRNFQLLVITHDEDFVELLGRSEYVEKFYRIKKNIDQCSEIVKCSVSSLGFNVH
UniProt O60518: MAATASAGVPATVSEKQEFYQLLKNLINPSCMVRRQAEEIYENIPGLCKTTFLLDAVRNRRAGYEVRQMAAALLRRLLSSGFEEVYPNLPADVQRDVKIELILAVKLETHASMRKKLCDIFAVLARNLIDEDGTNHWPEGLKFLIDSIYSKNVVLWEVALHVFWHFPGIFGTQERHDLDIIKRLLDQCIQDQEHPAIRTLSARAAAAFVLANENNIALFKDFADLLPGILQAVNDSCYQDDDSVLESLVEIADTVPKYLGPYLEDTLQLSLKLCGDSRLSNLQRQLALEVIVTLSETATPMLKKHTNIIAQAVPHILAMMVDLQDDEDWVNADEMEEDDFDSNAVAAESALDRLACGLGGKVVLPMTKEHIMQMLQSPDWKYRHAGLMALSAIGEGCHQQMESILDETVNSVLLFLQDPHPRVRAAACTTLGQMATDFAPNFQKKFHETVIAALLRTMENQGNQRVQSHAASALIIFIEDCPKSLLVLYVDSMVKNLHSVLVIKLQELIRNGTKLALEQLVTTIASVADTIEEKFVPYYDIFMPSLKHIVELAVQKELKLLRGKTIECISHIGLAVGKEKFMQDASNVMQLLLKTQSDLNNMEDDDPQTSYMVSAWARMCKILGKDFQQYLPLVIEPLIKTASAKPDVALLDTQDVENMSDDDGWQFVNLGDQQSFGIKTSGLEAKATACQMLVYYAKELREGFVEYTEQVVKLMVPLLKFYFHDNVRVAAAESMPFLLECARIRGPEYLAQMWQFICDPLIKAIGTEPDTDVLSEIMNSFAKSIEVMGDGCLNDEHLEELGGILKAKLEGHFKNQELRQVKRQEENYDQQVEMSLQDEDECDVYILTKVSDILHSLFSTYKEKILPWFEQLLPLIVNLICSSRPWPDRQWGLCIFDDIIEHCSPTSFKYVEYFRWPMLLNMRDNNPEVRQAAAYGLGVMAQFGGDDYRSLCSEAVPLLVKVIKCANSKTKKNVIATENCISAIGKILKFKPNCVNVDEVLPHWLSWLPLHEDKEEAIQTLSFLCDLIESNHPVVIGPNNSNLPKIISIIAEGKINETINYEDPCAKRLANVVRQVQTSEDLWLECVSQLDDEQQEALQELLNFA
UniProt Q96PU8: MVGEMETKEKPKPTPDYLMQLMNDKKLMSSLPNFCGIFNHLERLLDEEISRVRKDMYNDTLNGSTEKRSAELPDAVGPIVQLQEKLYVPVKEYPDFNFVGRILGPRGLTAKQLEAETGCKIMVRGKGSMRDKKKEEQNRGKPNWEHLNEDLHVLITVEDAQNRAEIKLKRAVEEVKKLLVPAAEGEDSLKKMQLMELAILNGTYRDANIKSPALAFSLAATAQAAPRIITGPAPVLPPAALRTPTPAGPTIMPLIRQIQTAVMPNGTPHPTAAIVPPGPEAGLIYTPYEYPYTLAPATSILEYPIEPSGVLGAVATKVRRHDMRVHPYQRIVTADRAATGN
UniProt P06737: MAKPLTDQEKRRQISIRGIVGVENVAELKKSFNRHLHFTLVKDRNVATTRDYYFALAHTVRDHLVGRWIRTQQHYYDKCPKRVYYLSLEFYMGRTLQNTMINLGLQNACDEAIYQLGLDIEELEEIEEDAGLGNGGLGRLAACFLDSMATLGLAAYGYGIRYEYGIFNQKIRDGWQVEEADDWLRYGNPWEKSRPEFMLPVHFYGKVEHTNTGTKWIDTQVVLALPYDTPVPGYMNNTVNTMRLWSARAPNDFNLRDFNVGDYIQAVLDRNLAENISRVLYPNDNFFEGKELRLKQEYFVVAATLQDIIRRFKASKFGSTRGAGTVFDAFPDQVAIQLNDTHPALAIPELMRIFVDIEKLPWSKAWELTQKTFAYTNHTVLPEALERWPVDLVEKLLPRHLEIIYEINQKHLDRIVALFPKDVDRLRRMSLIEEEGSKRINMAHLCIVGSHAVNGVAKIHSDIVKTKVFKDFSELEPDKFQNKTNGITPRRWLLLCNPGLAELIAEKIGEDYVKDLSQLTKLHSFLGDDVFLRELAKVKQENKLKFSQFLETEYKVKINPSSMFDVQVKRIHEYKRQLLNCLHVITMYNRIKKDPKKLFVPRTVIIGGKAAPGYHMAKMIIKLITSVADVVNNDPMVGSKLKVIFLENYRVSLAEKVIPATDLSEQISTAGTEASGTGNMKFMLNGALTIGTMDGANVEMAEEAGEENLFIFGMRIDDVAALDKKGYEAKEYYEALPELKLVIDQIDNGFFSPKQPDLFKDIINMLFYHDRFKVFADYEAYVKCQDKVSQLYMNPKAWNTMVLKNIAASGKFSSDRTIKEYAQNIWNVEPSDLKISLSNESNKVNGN
UniProt P61020: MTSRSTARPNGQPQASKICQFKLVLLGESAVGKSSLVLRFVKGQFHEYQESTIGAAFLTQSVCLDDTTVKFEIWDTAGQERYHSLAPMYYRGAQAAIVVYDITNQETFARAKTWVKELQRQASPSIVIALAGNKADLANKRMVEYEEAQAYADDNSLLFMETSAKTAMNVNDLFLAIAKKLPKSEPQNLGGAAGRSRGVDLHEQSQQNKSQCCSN
UniProt Q13636: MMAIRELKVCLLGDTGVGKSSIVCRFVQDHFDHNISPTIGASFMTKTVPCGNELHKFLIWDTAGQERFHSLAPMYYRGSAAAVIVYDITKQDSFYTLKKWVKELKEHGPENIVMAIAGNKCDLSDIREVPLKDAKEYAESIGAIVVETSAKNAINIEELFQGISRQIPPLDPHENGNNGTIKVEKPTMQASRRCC
UniProt Q9NXS2: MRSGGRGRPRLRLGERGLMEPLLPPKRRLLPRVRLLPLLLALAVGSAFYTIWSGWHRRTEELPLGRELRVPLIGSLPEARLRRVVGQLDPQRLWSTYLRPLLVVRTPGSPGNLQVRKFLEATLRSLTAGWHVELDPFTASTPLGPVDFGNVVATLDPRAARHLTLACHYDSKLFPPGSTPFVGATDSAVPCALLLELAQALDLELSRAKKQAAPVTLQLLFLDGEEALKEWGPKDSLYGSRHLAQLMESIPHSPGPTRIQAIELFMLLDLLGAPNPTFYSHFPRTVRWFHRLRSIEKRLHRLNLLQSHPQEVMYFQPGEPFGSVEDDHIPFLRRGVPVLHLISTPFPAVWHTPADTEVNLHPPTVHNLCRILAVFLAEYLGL
UniProt Q8WU10: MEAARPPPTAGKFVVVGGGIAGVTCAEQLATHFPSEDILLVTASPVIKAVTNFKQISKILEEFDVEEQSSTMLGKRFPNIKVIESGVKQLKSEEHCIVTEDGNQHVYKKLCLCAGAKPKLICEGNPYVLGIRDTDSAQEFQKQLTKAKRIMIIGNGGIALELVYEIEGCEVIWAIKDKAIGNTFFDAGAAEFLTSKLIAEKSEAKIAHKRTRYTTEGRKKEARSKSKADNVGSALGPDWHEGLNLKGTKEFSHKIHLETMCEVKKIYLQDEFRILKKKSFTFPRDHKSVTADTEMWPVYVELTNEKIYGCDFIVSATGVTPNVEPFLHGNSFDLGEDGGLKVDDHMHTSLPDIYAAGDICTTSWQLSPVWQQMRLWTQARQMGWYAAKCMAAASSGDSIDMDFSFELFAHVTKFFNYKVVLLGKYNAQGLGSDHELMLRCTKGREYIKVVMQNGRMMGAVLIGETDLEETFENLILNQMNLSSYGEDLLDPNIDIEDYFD
UniProt Q15276: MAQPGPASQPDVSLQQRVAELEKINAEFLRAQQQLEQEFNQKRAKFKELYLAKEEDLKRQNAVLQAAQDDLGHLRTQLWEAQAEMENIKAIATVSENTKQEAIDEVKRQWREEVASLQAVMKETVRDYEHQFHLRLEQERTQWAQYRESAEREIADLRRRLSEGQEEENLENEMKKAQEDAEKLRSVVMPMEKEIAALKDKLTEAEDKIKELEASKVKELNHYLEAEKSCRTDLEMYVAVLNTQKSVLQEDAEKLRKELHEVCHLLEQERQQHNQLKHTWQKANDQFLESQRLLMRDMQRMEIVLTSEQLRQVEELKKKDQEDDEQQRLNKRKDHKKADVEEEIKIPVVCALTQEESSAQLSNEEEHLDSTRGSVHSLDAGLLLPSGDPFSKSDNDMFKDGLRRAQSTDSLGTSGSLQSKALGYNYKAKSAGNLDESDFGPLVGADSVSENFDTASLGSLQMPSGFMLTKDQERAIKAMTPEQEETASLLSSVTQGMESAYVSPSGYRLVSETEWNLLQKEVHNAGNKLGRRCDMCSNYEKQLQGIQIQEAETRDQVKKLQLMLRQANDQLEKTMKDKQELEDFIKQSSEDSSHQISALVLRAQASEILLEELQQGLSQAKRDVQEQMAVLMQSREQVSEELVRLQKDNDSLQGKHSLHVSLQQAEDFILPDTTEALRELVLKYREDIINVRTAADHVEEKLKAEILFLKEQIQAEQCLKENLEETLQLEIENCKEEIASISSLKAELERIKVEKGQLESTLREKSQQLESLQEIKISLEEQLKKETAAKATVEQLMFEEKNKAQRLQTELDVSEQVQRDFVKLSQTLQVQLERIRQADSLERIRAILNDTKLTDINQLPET

Experiments:
Experiment in all cases: log2 fold change, soluble protein after heating vs DMSO (PISA); higher = thermal stabilisation; K562 lysate, 10 uM; active = over 0.2 and 3.5 SD of the protein, either way, in both replicates (recomputed)
ibrutinib = compound: C=CC(=O)N1CCC[C@@H](n2nc(-c3ccc(Oc4ccccc4)cc3)c3c(N)ncnc32)C1 [ibrutinib]
Outline: (§1)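 K562 pellets were dounce-homogenised in PBS pH 7.4 with 1 mM MgCl2, and the crude extract at 1 mg/mL protein was treated with 10 μM compound for 30 min. Aliquots were heated for 3 min across 48°C-58°C, pooled, and brought to 0.5% NP-40 at 4°C; soluble protein was the supernatant after 21,000xg for 90 min. Soluble protein was quantified by TMTpro 16plex LC-MS/MS with channel sums equalised, and reported as log2 fold change in thermal stability against DMSO controls, with values from duplicates.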

[1] = compound: CC(=O)c1cnc2ccc(-c3cc(Cl)c(O)c(Cl)c3)nc2c1N[C@H]1CC[C@H](CN(C)C)CC1
Outline: as §1

ralimetinib = compound: CC(C)(C)Cn1c(N)nc2ccc(-c3[nH]c(C(C)(C)C)nc3-c3ccc(F)cc3)nc21 [ralimetinib]
Outline: as §1

[2] = compound: CC(C)(O)CC(=O)NCCn1ccc2ncnc(Nc3ccc(Oc4cccc(C(F)(F)F)c4)c(Cl)c3)c21
Outline: as §1

[3] = compound: CC(C)C1=C2N=C(C=C(N2N=C1)NCC3=CC=CC=C3)NCCCCCCN
Outline: as §1

[4] = compound: CC1=C(C(CC(=O)N1)C2=CC=C(C=C2)C(F)(F)F)C(=O)NC3=C(C=C4C(=C3)C=NN4)F
Outline: as §1

[5] = compound: CC1=C(C2=C(C=C1)C(=O)C3=CC=CC=C3N2CCCN)C
Outline: as §1

[6] = compound: CC1=C(C=C(C=C1)NC(=O)C2=CC(=CC=C2)C(C)(C)C#N)NC3=CC4=C(C=C3)N=CN(C4=O)C
Outline: as §1

[7] = compound: CC1=C(C=C(C=C1)NC(=O)C2=CC(=CC=C2)N(C)C)NC(=O)C3=CC=C(C=C3)O
Outline: as §1

[8] = compound: CC1=CC=C(C=C1)SC2=C3C=C(SC3=CN=C2)C(=O)N
Outline: as §1

Measured: log2 fold change

RAB35 (UniProt Q15286)
inactive: ibrutinib 0.027 | [1] -0.015 | ralimetinib -0.006 | [2] 0.058 | [3] -0.027 | [4] 0.011 | [5] -0.014 | [6] -0.027 | [7] -0.006 | [8] -0.023

RABGGTB (UniProt P53611)
inactive: ibrutinib -0.017 | [1] -0.042 | ralimetinib 0.018 | [2] -0.052 | [3] 0.015 | [4] -0.002 | [5] -0.006 | [6] -0.013 | [7] 0.048 | [8] 0.013

RAB12 (UniProt Q6IQ22)
inactive: ibrutinib 0.015 | [1] -0.013 | ralimetinib 0.036 | [2] -0.016 | [3] -0.017 | [4] 0.017 | [5] 0.031 | [6] 0.036 | [7] 0.031 | [8] 0.021

PYCR1 (UniProt J3QKT4)
inactive: ibrutinib 0.034 | [1] 0.007 | ralimetinib -0.058 | [2] -0.063 | [3] -0.006 | [4] -0.183 | [5] -0.145 | [6] -0.075 | [7] 0.015 | [8] -0.108

RABGGTA (UniProt Q92696)
inactive: ibrutinib -0.011 | [1] -0.002 | ralimetinib 0.002 | [2] -0.037 | [3] -0.015 | [4] -0.035 | [5] 0.023 | [6] 0.029 | [7] 0.05 | [8] 0.032

RAD50 isoform 2 (UniProt Q92878)
inactive: ibrutinib 0.002 | [1] -0.01 | ralimetinib 0.01 | [2] 0.018 | [3] 0 | [4] -0.001 | [5] 0.03 | [6] 0 | [7] 0.017 | [8] -0.006

RAB3GAP2 (UniProt Q9H2M9)
inactive: ibrutinib -0.019 | [1] -0.021 | ralimetinib -0.005 | [2] -0.024 | [3] 0.007 | [4] -0.006 | [5] 0.019 | [6] -0.019 | [7] -0.001 | [8] 0.006

RANBP6 (UniProt O60518)
inactive: ibrutinib -0.034 | [1] -0.05 | ralimetinib 0.025 | [2] -0.066 | [3] -0.034 | [4] -0.005 | [5] -0.017 | [6] -0.009 | [7] 0.026 | [8] 0.009

RAB3IP (UniProt Q96QF0)
inactive: ibrutinib 0.159 | [1] 0 | ralimetinib 0.045 | [2] 0.01 | [3] -0.01 | [4] 0.04 | [5] 0.002 | [6] 0.013 | [7] 0.051 | [8] -0.034

RAB39B (UniProt Q96DA2)
inactive: ibrutinib 0.128

RACK1 (UniProt D6RHH4)
inactive: ibrutinib 0.017

2 entries drawn at random from those above:
RAB3GAP2 (UniProt Q9H2M9)
inactive: ibrutinib -0.019 | [1] -0.021 | ralimetinib -0.005 | [2] -0.024 | [3] 0.007 | [4] -0.006 | [5] 0.019 | [6] -0.019 | [7] -0.001 | [8] 0.006

RANBP6 (UniProt O60518)
inactive: ibrutinib -0.034 | [1] -0.05 | ralimetinib 0.025 | [2] -0.066 | [3] -0.034 | [4] -0.005 | [5] -0.017 | [6] -0.009 | [7] 0.026 | [8] 0.009

The listing continues:

RANBP10 (UniProt Q6VN20)
inactive: ibrutinib 0.022 | [1] 0.009 | ralimetinib 0.01 | [2] -0.001 | [3] 0.021 | [4] -0.001 | [5] -0.02 | [6] 0.069 | [7] 0.02 | [8] -0.023

QKI (UniProt Q96PU8)
inactive: ibrutinib -0.022 | [1] -0.012 | ralimetinib -0.023 | [2] -0.027 | [3] 0.029 | [4] 0.065 | [5] 0.069 | [6] -0.094 | [7] 0.009 | [8] -0.023

PYGL (UniProt P06737)
inactive: ibrutinib -0.013 | [1] 0.014 | ralimetinib 0.025 | [2] 0.031 | [3] -0.01 | [4] -0.018 | [5] 0.035 | [6] 0.013 | [7] -0.011 | [8] 0.016

RAB5B (UniProt P61020)
inactive: ibrutinib 0.015 | [1] -0.024 | ralimetinib 0.015 | [2] 0.011 | [3] 0.009 | [4] 0.04 | [5] 0.031 | [6] 0.053 | [7] -0.027 | [8] 0.016

RAB3A (UniProt P20336)
inactive: ibrutinib -0.009 | [1] 0.073 | ralimetinib 0.008 | [2] 0.014 | [3] -0.038 | [4] 0.077 | [5] -0.072 | [6] -0.017 | [7] -0.067 | [8] 0.179

RAI14 isoform 2 (UniProt Q9P0K7)
inactive: ibrutinib -0.019 | [1] -0.007 | ralimetinib -0.011 | [2] -0.01 | [3] -0.004 | [4] 0.017 | [5] -0.024 | [6] 0.01 | [7] 0.024 | [8] 0.001

RAB31 (UniProt Q13636)
inactive: ibrutinib 0.009 | [1] -0.052 | ralimetinib 0.02 | [2] -0.028 | [3] 0.003 | [4] -0.043 | [5] 0.005 | [6] 0.025 | [7] -0.014 | [8] 0.008

RABIF (UniProt P47224)
inactive: ibrutinib 0.009 | [1] -0.003 | ralimetinib -0.011 | [2] -0.024 | [3] -0.037 | [4] -0.038 | [5] -0.013 | [6] -0.024 | [7] 0 | [8] 0.013

PXN isoform 3 (UniProt P49023)
inactive: ibrutinib 0.044 | [1] -0.001 | ralimetinib 0.013 | [2] 0.002 | [3] -0.011 | [4] -0.003 | [5] -0.008 | [6] 0.094 | [7] -0.006 | [8] -0.048

RAC2 (UniProt P15153)
inactive: ibrutinib 0.094 | [1] -0.04 | ralimetinib 0.07 | [2] -0.027 | [3] 0.047 | [4] -0.005 | [5] 0.017 | [6] -0.022 | [7] 0.045 | [8] -0.014

QTRT2 isoform 4 (UniProt Q9H974)
inactive: ibrutinib 0.01 | [1] 0.002 | ralimetinib 0.014 | [2] -0.028 | [3] -0.014 | [4] -0.035 | [5] 0.006 | [6] -0.025 | [7] -0.003 | [8] -0.013

RAB4B isoform 2 (UniProt P61018)
inactive: ibrutinib 0.091 | [1] 0.007 | ralimetinib 0.007 | [2] -0.019 | [3] -0.035 | [4] 0.048 | [5] 0.034 | [6] -0.001 | [7] -0.061 | [8] 0.005

QPCTL (UniProt Q9NXS2)
inactive: ibrutinib 0.097 | [1] 0.031 | ralimetinib 0.027 | [2] -0.023 | [3] -0.025 | [4] -0.076 | [5] -0.007 | [6] 0.075 | [7] -0.014 | [8] 0.056

PYROXD1 (UniProt Q8WU10)
inactive: ibrutinib -0.02 | [1] -0.148 | ralimetinib 0.032 | [2] 0.069 | [3] 0.029 | [4] 0.039 | [5] -0.007 | [6] -0.053 | [7] -0.015 | [8] 0.035

RAB20 (UniProt Q9NX57)
inactive: ibrutinib 0.063 | [1] 0.008 | ralimetinib -0.012 | [2] -0.108 | [3] -0.032 | [4] 0.108 | [5] -0.061 | [6] -0.013 | [7] -0.05 | [8] 0.055

PYCR3 (UniProt Q53H96)
inactive: ibrutinib 0.023 | [1] -0.003 | ralimetinib 0.007 | [2] 0.003 | [3] -0.03 | [4] -0.016 | [5] -0.042 | [6] 0.02 | [7] 0.007 | [8] 0.018

RANBP9 (UniProt Q96S59)
inactive: ibrutinib -0.02 | [1] -0.028 | ralimetinib -0.005 | [2] -0.054 | [3] 0.082 | [4] 0.021 | [5] 0.005 | [6] 0.024 | [7] 0.053 | [8] -0.013

RABL6 (UniProt Q3YEC7)
inactive: ibrutinib 0.01 | [1] -0.032 | ralimetinib 0.022 | [2] -0.016 | [3] -0.014 | [4] -0.001 | [5] 0.001 | [6] 0.019 | [7] 0.005 | [8] -0.001

RABEP1 (UniProt Q15276)
inactive: ibrutinib 0.007 | [1] -0.01 | ralimetinib -0.018 | [2] -0.044 | [3] -0.023 | [4] 0.009 | [5] -0.021 | [6] 0.004 | [7] 0.003 | [8] -0.023

PXMP2 (UniProt Q9NR77)
inactive: ibrutinib -0.018 | [1] -0.006 | ralimetinib -0.003 | [2] 0.019 | [3] -0.004 | [4] 0.015 | [5] -0.029 | [6] 0.04 | [7] -0.029 | [8] 0
